Laboratory results published in patent US20030045691A1.
Results are given in words; binding and its absence hold for the method and conditions named. Some entries that bind do so weakly or less than the wild type.

Chains of the proteins cited; added tags and fusions are not shown. Lines headed by an entry give the natural chain unless they say otherwise; changes in a name come on top.
UniProt Q10589: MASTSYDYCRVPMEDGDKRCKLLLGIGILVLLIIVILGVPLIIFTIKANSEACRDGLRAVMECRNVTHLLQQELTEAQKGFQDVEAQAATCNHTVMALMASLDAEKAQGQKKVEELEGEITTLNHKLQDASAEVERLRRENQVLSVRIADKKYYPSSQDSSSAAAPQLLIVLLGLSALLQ

Key:
[1] = biological target: HM 1.24 antigen polypeptide (human) (UniProt Q10589); assay: flow cytometry on KPMM2 cells
[2] = biological target: HM 1.24 antigen polypeptide (human) (UniProt Q10589); assay: Cell-ELISA on fixed WISH cells
[3] = biological target: HM 1.24 antigen polypeptide (human) (UniProt Q10589); assay: flow cytometry on KPMM2 cells, COS-7 culture supernatant
[4] = biological target: HM 1.24 antigen polypeptide (human) (UniProt Q10589); assay: Cell-ELISA on fixed WISH cells, COS-7 supernatant concentrate
[5] = biological target: HM 1.24 antigen polypeptide (human) (UniProt Q10589); assay: competition Cell-ELISA on fixed WISH cells; competitor biotinylated mouse anti-HM 1.24 antibody
[6] = biological target: HM 1.24 antigen polypeptide (human) (UniProt Q10589); assay: Cell-ELISA on fixed WISH cells, direct binding and competition with biotinylated mouse anti-HM 1.24 antibody
[7] = biological target: HM 1.24 antigen polypeptide (human) (UniProt Q10589); assay: flow cytometry on KPMM2 cells, purified antibody
[8] = biological target: HM 1.24 antigen polypeptide (human) (UniProt Q10589); assay: expression cloning: panning of cDNA-transfected COS-7 cells on dishes coated with the antibody
[9] = biological target: HM 1.24 antigen polypeptide (human) (UniProt Q10589); assay: antigen binding activity, Cell-ELISA on fixed WISH cells
[10] = biological target: HM 1.24 antigen polypeptide (human) (UniProt Q10589); assay: binding inhibition activity, competition Cell-ELISA on fixed WISH cells; competitor biotinylated mouse anti-HM 1.24 antibody
[11] = biological target: HM 1.24 antigen polypeptide (human) (UniProt Q10589); assay: Cell-ELISA on fixed WISH cells, CHO-produced purified antibody, direct binding and competition with biotinylated mouse anti-HM 1.24 antibody

Measured: binding

B1: chimeric anti-HM 1.24 antibody (antibody, V domains shown)
VH: QVQLQQSGAELARPGASVKLSCKASGYTFTPYWMQWVKQRPGQGLEWIGSIFPGDGDTRYSQKFKGKATLTADKSSSTAYMQLSILAFEDSAVYYCARGLRRGGYYFDYWGQGTTLTVSS
VL: DIVMTQSHKFMSTSVGDRVSITCKASQDVNTAVAWYQQKPGQSPKLLIYSASNRYTGVPDRITGSGSGTDFTFTISSVQAEDLALYYCQQHYSTPFTFGSGTKLEIK
binds: [1] | [2] | [3] | [4] | [5] | [6]

B2: anti-HM 1.24 antibody comprising version a of the humanized L chain and the chimeric H chain (antibody, V domains shown)
VH: QVQLQQSGAELARPGASVKLSCKASGYTFTPYWMQWVKQRPGQGLEWIGSIFPGDGDTRYSQKFKGKATLTADKSSSTAYMQLSILAFEDSAVYYCARGLRRGGYYFDYWGQGTTLTVSS
VL: DIQMTQSPSSLSASVGDRVTITCKASQDVNTAVAWYQQKPGKAPKLLIYSASNRYTGVPSRFSGSGSGTDFTFTISSLQPEDIATYYCQQHYSTPFTFGQGTKVEIK
binds: [2] | [4]

B3: mouse anti-HM 1.24 monoclonal antibody (antibody, V domains shown)
VH: QVQLQQSGAELARPGASVKLSCKASGYTFTPYWMQWVKQRPGQGLEWIGSIFPGDGDTRYSQKFKGKATLTADKSSSTAYMQLSILAFEDSAVYYCARGLRRGGYYFDYWGQGTTLTVSS
VL: DIVMTQSHKFMSTSVGDRVSITCKASQDVNTAVAWYQQKPGQSPKLLIYSASNRYTGVPDRITGSGSGTDFTFTISSVQAEDLALYYCQQHYSTPFTFGSGTKLEIK
binds: [1] | [7] | [8] | [5]

B4: human mouse hybrid anti-HM 1.24 antibody (antibody, V domains shown)
VH: QVQLVQSGAEVKKPGASVKVSCKASGYTFTPYWMQWVRQAPGQGLEWMGSIFPGDGDTRYSQKFKGKATLTADKSSSTAYMQLSILAFEDSAVYYCARGLRRGGYYFDYWGQGTTLTVSS
VL: DIQMTQSPSSLSASVGDRVTITCKASQDVNTAVAWYQQKPGKAPKLLIYSASNRYTGVPSRFSGSGSGTDFTFTISSLQPEDIATYYCQQHYSTPFTFGQGTKVEIK
binds: [4]

B5: reshaped human anti-HM 1.24 antibody, L chain version a / H chain version i (antibody, V domains shown)
VH: QVQLVQSGAEVKKPGASVKVSCKASGYTFTPYWMQWVRQAPGQGLEWMGSIFPGDGDTRYSQKFKGKVTMTADTSSSTAYMELSSLAFEDTAVYYCARGLRRGGYYFDYWGQGTTVTVSS
VL: DIQMTQSPSSLSASVGDRVTITCKASQDVNTAVAWYQQKPGKAPKLLIYSASNRYTGVPSRFSGSGSGTDFTFTISSLQPEDIATYYCQQHYSTPFTFGQGTKVEIK
binds: [9] | [6] | [10]

B6: reshaped human anti-HM 1.24 antibody, L chain version a / H chain version j (antibody, V domains shown)
VH: QVQLVQSGAEVKKPGASVKVSCKASGYTFTPYWMQWVRQAPGQGLEWMGSIFPGDGDTRYSQKFKGKATLTADTSSSTAYMELSSLRSEDTAVYYCARGLRRGGYYFDYWGQGTTVTVSS
VL: DIQMTQSPSSLSASVGDRVTITCKASQDVNTAVAWYQQKPGKAPKLLIYSASNRYTGVPSRFSGSGSGTDFTFTISSLQPEDIATYYCQQHYSTPFTFGQGTKVEIK
binds: [9] | [6] | [10]

B7: reshaped human anti-HM 1.24 antibody, L chain version a / H chain version k (antibody, V domains shown)
VH: QVQLVQSGAEVKKPGASVKVSCKASGYTFTPYWMQWVRQAPGQGLEWMGSIFPGDGDTRYSQKFKGKVTMTADTSSSTAYMQLSSLRSEDTAVYYCARGLRRGGYYFDYWGQGTTVTVSS
VL: DIQMTQSPSSLSASVGDRVTITCKASQDVNTAVAWYQQKPGKAPKLLIYSASNRYTGVPSRFSGSGSGTDFTFTISSLQPEDIATYYCQQHYSTPFTFGQGTKVEIK
binds: [9] | [6] | [10]

B8: reshaped human anti-HM 1.24 antibody, L chain version a / H chain version l (antibody, V domains shown)
VH: QVQLVQSGAEVKKPGASVKVSCKASGYTFTPYWMQWVRQAPGQGLEWMGSIFPGDGDTRYSQKFKGKVTMTADTSSSTAYMQLSILRSEDTAVYYCARGLRRGGYYFDYWGQGTTVTVSS
VL: DIQMTQSPSSLSASVGDRVTITCKASQDVNTAVAWYQQKPGKAPKLLIYSASNRYTGVPSRFSGSGSGTDFTFTISSLQPEDIATYYCQQHYSTPFTFGQGTKVEIK
binds: [9] | [6] | [10]

B9: reshaped human anti-HM 1.24 antibody, L chain version a / H chain version m (antibody, V domains shown)
VH: QVQLVQSGAEVKKPGASVKVSCKASGYTFTPYWMQWVRQAPGQGLEWMGSIFPGDGDTRYSQKFKGKVTMTADTSSSTAYMQLSILRSEDSAVYYCARGLRRGGYYFDYWGQGTTVTVSS
VL: DIQMTQSPSSLSASVGDRVTITCKASQDVNTAVAWYQQKPGKAPKLLIYSASNRYTGVPSRFSGSGSGTDFTFTISSLQPEDIATYYCQQHYSTPFTFGQGTKVEIK
binds: [9] | [6] | [10]

B10: reshaped human anti-HM 1.24 antibody, L chain version a / H chain version n (antibody, V domains shown)
VH: QVQLVQSGAEVKKPGASVKVSCKASGYTFTPYWMQWVRQAPGQGLEWMGSIFPGDGDTRYSQKFKGKVTMTADTSSSTAYMELSILRSEDTAVYYCARGLRRGGYYFDYWGQGTTVTVSS
VL: DIQMTQSPSSLSASVGDRVTITCKASQDVNTAVAWYQQKPGKAPKLLIYSASNRYTGVPSRFSGSGSGTDFTFTISSLQPEDIATYYCQQHYSTPFTFGQGTKVEIK
binds: [9] | [6] | [10]

B11: reshaped human anti-HM 1.24 antibody, L chain version a / H chain version o (antibody, V domains shown)
VH: QVQLVQSGAEVKKPGASVKVSCKASGYTFTPYWMQWVRQAPGQGLEWMGSIFPGDGDTRYSQKFKGKVTMTADTSSSTAYMELSSLRSEDSAVYYCARGLRRGGYYFDYWGQGTTVTVSS
VL: DIQMTQSPSSLSASVGDRVTITCKASQDVNTAVAWYQQKPGKAPKLLIYSASNRYTGVPSRFSGSGSGTDFTFTISSLQPEDIATYYCQQHYSTPFTFGQGTKVEIK
binds: [9] | [6] | [10]

B12: reshaped human anti-HM 1.24 antibody, L chain version a / H chain version p (antibody, V domains shown)
VH: QVQLVQSGAEVKKPGASVKVSCKASGYTFTPYWMQWVRQAPGQGLEWMGSIFPGDGDTRYSQKFKGRVTMTADTSTSTAYMELSSLRSEDTAVYYCARGLRRGGYYFDYWGQGTTVTVSS
VL: DIQMTQSPSSLSASVGDRVTITCKASQDVNTAVAWYQQKPGKAPKLLIYSASNRYTGVPSRFSGSGSGTDFTFTISSLQPEDIATYYCQQHYSTPFTFGQGTKVEIK
binds: [9] | [6] | [10]

B13: reshaped human anti-HM 1.24 antibody, L chain version a / H chain version r (antibody, V domains shown)
VH: QVQLVQSGAEVKKPGASVKVSCKASGYTFTPYWMQWVRQAPGQGLEWMGSIFPGDGDTRYSQKFKGRVTMTADKSTSTAYMELSSLRSEDTAVYYCARGLRRGGYYFDYWGQGTTVTVSS
VL: DIQMTQSPSSLSASVGDRVTITCKASQDVNTAVAWYQQKPGKAPKLLIYSASNRYTGVPSRFSGSGSGTDFTFTISSLQPEDIATYYCQQHYSTPFTFGQGTKVEIK
binds: [2] | [9] | [5] | [6] | [10] | [11]

B14: reshaped human anti-HM 1.24 antibody, L chain version a / H chain version s (antibody, V domains shown)
VH: QVQLVQSGAEVKKPGASVKVSCKASGYTFTPYWMQWVRQAPGQGLEWMGSIFPGDGDTRYSQKFKGRVTITADKSTSTAYMELSSLRSEDTAVYYCARGLRRGGYYFDYWGQGTTVTVSS
VL: DIQMTQSPSSLSASVGDRVTITCKASQDVNTAVAWYQQKPGKAPKLLIYSASNRYTGVPSRFSGSGSGTDFTFTISSLQPEDIATYYCQQHYSTPFTFGQGTKVEIK
binds: [2] | [5] | [6]
